# Data reported in the supplement of paper PMC11732987, “Enantioselective OTUD7B fragment discovery through chemoproteomics screening and high-throughput optimisation” (Communications Chemistry, 2025).
# Sequences of proteins named here, by UniProt entry; tags and fusion partners are left off. A change or cut given only in a name is not applied to a line headed by its entry. Residues count along the entry.
# UniProt Q15633, 142-171: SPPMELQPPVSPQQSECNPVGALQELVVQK
# UniProt P37802, 58-78: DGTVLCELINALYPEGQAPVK
# UniProt Q9UK61: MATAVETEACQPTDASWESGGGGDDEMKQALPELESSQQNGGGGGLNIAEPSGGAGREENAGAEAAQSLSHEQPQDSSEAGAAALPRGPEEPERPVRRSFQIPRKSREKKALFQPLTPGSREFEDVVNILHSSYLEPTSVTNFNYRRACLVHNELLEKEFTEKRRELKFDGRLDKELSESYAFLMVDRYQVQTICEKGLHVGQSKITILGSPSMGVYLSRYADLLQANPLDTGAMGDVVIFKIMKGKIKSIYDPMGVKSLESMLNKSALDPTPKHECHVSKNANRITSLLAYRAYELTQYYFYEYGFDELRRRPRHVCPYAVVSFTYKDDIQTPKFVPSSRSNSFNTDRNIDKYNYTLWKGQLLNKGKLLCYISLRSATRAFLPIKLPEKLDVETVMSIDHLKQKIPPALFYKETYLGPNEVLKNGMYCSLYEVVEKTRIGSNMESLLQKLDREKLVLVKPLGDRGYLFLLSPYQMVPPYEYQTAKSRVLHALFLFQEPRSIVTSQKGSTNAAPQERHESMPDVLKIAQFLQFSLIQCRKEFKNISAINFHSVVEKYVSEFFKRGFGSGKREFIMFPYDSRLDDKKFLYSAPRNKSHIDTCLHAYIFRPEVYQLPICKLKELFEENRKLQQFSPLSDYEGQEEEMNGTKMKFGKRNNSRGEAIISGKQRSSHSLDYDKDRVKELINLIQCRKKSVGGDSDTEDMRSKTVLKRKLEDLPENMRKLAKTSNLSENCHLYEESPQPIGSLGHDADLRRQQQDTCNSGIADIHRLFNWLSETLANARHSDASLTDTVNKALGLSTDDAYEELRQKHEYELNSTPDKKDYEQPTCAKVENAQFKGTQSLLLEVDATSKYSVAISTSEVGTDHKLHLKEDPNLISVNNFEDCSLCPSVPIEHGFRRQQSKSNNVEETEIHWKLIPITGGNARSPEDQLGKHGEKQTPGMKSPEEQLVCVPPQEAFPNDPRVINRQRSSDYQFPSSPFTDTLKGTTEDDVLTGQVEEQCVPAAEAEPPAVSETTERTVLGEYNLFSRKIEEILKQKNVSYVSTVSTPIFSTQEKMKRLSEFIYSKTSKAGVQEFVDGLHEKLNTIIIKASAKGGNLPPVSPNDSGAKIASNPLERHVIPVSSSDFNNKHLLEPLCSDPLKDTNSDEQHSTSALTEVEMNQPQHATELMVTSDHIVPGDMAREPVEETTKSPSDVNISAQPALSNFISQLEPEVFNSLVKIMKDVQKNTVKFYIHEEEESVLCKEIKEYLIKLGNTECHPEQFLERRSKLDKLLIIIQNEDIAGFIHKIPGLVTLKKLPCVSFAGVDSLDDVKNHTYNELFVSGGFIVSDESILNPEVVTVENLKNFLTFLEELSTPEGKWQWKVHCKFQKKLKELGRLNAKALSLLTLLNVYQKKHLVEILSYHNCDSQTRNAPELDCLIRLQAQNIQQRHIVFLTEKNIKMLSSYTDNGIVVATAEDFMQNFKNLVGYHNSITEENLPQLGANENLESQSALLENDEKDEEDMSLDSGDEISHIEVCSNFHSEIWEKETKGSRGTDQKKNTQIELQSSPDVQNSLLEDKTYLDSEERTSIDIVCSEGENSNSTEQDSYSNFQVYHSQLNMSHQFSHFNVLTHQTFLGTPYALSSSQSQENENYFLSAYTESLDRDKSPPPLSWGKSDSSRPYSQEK
# UniProt Q5VWN6: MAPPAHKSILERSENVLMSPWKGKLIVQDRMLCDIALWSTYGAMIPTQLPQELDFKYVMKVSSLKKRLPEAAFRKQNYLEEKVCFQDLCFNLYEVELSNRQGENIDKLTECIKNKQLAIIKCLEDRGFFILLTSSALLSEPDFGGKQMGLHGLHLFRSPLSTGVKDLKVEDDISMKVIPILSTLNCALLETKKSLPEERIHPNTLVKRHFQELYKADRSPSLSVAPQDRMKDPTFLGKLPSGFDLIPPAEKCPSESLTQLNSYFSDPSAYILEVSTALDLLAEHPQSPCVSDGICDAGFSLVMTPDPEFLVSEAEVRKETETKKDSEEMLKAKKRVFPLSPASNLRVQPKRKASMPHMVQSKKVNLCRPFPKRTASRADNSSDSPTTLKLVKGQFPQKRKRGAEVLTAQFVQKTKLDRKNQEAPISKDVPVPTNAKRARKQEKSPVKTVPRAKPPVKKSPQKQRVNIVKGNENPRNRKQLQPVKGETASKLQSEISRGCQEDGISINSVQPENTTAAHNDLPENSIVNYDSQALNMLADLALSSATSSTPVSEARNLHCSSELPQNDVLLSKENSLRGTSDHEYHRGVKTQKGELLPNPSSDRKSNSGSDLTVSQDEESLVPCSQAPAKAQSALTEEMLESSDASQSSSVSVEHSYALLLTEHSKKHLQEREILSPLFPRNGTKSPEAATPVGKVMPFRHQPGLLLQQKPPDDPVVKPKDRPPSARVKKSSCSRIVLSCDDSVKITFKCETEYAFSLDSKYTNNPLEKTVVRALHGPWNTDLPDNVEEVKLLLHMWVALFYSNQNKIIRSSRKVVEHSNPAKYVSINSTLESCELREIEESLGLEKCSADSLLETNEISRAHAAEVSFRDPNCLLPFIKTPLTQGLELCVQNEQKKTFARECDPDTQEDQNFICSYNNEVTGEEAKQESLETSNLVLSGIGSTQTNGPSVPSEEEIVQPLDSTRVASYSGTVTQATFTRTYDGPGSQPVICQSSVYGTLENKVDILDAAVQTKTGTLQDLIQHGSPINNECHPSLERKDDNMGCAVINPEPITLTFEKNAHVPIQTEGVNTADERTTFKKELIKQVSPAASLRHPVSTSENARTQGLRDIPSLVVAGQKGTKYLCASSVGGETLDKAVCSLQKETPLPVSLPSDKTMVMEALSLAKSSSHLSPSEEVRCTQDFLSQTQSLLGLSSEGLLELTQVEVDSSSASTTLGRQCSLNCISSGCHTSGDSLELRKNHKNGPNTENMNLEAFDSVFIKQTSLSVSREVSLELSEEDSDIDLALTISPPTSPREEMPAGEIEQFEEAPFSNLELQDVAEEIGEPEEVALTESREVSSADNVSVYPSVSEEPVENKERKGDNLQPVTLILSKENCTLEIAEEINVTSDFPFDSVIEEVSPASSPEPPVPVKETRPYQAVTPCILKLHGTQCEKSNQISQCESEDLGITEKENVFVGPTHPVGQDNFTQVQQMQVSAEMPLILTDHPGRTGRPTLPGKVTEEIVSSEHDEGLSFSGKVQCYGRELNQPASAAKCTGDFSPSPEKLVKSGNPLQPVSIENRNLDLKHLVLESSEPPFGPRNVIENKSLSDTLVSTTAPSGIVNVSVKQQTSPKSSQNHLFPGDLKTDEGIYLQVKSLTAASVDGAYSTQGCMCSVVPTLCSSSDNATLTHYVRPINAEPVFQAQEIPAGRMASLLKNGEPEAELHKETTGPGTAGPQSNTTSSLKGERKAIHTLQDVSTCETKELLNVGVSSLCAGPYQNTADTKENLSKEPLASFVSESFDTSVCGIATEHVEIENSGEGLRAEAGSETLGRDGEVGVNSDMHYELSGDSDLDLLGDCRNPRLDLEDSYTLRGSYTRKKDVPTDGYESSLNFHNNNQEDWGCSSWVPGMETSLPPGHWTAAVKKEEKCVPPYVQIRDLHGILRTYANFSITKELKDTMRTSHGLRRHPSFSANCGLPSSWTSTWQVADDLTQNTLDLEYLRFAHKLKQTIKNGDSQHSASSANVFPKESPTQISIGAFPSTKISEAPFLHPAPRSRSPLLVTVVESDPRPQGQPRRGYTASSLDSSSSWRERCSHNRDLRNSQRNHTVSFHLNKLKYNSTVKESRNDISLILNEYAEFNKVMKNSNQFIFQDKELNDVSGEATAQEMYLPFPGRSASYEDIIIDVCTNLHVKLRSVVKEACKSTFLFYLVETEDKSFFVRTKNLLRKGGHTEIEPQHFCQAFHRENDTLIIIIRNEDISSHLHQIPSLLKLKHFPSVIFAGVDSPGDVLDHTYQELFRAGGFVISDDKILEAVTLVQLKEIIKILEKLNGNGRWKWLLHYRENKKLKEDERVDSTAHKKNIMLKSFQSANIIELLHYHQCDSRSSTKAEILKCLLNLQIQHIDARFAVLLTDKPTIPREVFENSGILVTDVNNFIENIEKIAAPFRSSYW
# UniProt Q15814, 173-196: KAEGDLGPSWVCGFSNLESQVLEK
# UniProt Q9Y6I9, 94-117: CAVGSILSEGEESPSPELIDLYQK
# UniProt Q99426: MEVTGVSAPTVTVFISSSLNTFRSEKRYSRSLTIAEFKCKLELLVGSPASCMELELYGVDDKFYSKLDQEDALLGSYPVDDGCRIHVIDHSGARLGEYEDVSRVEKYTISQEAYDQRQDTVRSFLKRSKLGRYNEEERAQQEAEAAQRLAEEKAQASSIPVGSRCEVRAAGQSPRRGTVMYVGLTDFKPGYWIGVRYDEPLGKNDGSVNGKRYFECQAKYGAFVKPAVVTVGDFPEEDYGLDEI
# UniProt Q8TC07: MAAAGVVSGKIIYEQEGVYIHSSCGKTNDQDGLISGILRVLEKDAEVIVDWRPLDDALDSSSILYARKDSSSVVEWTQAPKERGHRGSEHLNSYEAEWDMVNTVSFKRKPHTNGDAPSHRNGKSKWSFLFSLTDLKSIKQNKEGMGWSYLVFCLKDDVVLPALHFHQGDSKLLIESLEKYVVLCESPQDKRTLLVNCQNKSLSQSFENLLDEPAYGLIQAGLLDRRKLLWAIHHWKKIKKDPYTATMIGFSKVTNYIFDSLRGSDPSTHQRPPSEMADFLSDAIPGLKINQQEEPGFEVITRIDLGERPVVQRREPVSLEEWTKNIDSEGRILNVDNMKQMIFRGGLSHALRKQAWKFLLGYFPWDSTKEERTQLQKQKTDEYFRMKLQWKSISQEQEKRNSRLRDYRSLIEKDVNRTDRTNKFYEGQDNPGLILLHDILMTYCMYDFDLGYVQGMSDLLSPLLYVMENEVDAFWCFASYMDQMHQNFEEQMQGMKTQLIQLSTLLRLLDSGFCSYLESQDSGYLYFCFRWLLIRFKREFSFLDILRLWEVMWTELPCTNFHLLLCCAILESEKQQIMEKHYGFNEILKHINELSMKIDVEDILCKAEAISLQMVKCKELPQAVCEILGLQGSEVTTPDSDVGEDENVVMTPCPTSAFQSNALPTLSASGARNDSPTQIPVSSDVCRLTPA
# UniProt Q969Z0: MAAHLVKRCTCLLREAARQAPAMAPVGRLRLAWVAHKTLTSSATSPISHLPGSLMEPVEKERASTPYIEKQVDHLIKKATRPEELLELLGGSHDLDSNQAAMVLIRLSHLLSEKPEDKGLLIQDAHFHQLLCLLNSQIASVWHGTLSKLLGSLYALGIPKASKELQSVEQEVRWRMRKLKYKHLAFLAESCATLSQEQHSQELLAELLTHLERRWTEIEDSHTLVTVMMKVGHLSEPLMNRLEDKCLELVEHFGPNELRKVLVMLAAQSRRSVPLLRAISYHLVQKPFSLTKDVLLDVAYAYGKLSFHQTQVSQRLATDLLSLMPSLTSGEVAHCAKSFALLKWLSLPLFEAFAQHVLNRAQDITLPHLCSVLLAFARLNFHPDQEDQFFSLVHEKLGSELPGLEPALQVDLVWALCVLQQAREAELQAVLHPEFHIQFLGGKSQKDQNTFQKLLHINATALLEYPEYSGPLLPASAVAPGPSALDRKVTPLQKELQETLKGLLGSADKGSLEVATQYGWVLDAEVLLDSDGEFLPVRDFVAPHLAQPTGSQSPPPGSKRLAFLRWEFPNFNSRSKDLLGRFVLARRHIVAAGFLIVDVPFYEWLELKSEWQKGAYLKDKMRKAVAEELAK
# UniProt Q9NXG2: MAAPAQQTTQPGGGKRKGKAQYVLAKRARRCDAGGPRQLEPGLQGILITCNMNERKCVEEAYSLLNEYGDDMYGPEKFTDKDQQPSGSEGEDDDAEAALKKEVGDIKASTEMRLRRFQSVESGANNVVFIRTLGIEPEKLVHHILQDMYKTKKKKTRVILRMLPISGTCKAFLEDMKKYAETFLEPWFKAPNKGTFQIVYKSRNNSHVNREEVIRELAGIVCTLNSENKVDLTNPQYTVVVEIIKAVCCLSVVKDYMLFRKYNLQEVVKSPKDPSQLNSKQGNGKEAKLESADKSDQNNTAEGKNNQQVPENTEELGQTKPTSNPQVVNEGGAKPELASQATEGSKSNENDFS
# Some of the results follow. The data scatter; read single values as rough.
# Compound: ClCC(=O)N[C@@H]1CCCc2ccccc12
# Test: log2 mean competition ratio of IA-DTB cysteine labelling (DMSO/compound) (log2 ratio); higher = stronger cysteine engagement by compound
# Settings: 50 µM; treatment time: 4 h; cell line lysate: HEK293T
# Method: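 IA-DTB competitive cysteine chemoproteomics in HEK293T RIPA lysate. Lysates were treated with compound 29 or 30 at 50 or 200 µM for 4 h, then IA-DTB (500 µM, 1 h), trypsin-digested, NeutrAvidin-enriched and analysed by diaPASEF. Competition ratio = intensity DMSO / intensity compound (n=4 treated, n=64 DMSO); binding: mean log2 CR ≥ 1 and p ≤ 0.05 plus QC filters. Target is the cysteine site.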
row,Target,log2 mean competition ratio
1,TARBP2 C158 (UniProt Q15633),-0.0764
2,TAGLN2 C63 (UniProt P37802),-0.292
3,TASOR C195 (UniProt Q9UK61),0.326
4,TAF1D C36,0.128
5,TASOR2 C1432 (UniProt Q5VWN6),-0.0571
6,TBCC C6 (UniProt Q15814),0.0156
7,TEX264 C94 (UniProt Q9Y6I9),0.0145
8,TAPBP C115 (UniProt O15533),0.072
9,TBCB C216 (UniProt Q99426),-0.117
10,TEPSIN C295,0.0911
11,TBCC C184 (UniProt Q15814),0.36
12,TBCD C899,0.0171
13,TAGLN2 C124 (UniProt P37802),0.0723
14,TEX264 C182 (UniProt Q9Y6I9),-0.142
15,TBC1D15 C197 (UniProt Q8TC07),-0.0408
16,TBRG4 C246 (UniProt Q969Z0),-0.281
17,THUMPD1 C31 (UniProt Q9NXG2),-0.148
18,THOC2 C1152,-0.039
19,TBC1D15 C686 (UniProt Q8TC07),-0.108
20,TBX2 C356,0.041

# Same assay, conditions: 200 µM; treatment time: 4 h; cell line lysate: HEK293T
row,Target,log2 mean competition ratio
1,TARBP2 C158 (UniProt Q15633),-0.256
2,TAGLN2 C63 (UniProt P37802),-0.116
3,TASOR C195 (UniProt Q9UK61),-0.235
4,TAF1D C36,-0.333
5,TASOR2 C1432 (UniProt Q5VWN6),0.0506
6,TBCC C6 (UniProt Q15814),-0.172
7,TEX264 C94 (UniProt Q9Y6I9),-0.114
8,TAPBP C115 (UniProt O15533),0.0713
9,TBCB C216 (UniProt Q99426),-0.104
10,TEPSIN C295,0.219
11,TBCC C184 (UniProt Q15814),0.0534
12,TBCD C899,0.183
13,TAGLN2 C124 (UniProt P37802),-0.236
14,TEX264 C182 (UniProt Q9Y6I9),0.575
15,TBC1D15 C197 (UniProt Q8TC07),0.0876
16,TBRG4 C246 (UniProt Q969Z0),0.71
17,THUMPD1 C31 (UniProt Q9NXG2),0.0615
18,THOC2 C1152,0.156
19,TBC1D15 C686 (UniProt Q8TC07),0.0114
20,TBX2 C356,0.123
